Assay [1] addresses T1, VANGL2, endogenous in mouse peritoneal macrophages (mouse (endogenous in peritoneal macrophages)) (UniProt Q91ZD4).
T1 sequence: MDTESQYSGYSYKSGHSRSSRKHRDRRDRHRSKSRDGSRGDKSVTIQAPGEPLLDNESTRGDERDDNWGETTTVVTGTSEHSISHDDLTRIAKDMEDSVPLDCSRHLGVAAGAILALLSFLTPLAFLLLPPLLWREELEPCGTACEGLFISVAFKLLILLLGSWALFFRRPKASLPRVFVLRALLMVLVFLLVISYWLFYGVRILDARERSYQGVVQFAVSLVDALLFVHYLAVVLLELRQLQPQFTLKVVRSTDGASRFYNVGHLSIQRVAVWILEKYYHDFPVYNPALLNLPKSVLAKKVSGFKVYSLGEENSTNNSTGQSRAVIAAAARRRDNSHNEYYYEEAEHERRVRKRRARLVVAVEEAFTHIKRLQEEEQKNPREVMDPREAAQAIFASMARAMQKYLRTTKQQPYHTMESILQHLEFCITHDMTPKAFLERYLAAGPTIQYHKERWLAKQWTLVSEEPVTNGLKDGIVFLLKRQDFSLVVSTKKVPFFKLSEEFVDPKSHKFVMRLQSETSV
Put plainly: co-IP; endogenous, after cellular fractionation: LPS-treated PEMs, cytoplasmic and cell membrane fractions; VANGL2 pulled down by IP; immunoblot.

Sequences of proteins named here, by UniProt entry; tags and fusion partners are left off. A change or cut given only in a name is not applied to a line headed by its entry.
UniProt Q8K3K8: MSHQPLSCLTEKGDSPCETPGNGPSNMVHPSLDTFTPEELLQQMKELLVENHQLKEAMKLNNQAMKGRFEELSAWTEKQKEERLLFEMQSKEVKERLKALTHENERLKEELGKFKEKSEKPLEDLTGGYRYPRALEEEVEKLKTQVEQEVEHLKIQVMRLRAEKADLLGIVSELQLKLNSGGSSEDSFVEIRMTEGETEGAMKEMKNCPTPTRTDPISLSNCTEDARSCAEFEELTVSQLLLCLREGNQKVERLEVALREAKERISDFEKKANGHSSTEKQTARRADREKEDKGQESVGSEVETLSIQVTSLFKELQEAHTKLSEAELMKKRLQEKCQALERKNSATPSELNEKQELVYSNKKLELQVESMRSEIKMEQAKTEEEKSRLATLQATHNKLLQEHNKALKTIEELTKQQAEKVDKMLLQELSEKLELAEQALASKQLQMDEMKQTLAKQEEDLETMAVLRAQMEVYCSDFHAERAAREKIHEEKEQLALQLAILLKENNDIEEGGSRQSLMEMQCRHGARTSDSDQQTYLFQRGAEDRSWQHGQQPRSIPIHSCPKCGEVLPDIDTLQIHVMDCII
UniProt Q96CV9: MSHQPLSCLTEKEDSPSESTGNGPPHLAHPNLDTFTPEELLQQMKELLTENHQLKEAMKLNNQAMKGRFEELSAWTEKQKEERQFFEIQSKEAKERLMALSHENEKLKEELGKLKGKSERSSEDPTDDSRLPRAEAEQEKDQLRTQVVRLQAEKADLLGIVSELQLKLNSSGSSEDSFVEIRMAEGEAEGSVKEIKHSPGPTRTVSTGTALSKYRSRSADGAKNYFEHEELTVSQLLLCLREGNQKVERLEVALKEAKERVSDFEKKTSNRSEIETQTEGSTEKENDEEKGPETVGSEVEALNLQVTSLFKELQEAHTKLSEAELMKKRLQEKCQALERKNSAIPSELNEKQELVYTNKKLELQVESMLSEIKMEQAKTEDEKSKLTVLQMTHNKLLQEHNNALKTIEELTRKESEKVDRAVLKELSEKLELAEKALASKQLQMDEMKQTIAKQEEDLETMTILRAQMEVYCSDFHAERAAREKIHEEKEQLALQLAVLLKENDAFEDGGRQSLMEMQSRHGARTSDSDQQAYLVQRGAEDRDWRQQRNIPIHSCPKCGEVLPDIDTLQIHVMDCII
UniProt Q96P20: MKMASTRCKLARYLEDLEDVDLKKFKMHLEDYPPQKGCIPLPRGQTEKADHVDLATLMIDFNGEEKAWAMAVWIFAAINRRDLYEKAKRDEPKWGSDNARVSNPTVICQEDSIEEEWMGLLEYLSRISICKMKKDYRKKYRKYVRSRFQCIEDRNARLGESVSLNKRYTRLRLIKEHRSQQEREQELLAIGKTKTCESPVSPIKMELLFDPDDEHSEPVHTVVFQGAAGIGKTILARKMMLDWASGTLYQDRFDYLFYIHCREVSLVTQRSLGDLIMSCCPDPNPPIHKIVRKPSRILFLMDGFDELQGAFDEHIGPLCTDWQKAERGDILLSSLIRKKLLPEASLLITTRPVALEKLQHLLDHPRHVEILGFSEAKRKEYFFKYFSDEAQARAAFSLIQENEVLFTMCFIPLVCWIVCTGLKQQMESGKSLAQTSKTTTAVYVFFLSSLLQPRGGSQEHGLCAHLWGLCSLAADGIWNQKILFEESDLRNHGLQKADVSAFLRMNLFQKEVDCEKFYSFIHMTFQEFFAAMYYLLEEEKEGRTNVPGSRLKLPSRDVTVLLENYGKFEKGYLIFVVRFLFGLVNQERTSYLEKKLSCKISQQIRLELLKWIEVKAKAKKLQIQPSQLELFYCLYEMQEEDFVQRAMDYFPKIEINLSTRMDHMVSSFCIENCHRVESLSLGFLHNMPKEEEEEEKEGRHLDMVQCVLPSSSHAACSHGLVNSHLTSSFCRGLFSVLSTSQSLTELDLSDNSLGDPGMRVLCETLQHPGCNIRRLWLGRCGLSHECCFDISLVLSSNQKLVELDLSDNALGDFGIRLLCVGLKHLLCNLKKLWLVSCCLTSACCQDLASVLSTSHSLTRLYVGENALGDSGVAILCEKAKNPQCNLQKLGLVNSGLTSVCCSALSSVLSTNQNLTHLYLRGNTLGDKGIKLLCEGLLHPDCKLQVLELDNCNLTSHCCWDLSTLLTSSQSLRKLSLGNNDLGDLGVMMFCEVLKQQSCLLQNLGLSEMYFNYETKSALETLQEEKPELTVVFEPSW
UniProt Q8R4B8: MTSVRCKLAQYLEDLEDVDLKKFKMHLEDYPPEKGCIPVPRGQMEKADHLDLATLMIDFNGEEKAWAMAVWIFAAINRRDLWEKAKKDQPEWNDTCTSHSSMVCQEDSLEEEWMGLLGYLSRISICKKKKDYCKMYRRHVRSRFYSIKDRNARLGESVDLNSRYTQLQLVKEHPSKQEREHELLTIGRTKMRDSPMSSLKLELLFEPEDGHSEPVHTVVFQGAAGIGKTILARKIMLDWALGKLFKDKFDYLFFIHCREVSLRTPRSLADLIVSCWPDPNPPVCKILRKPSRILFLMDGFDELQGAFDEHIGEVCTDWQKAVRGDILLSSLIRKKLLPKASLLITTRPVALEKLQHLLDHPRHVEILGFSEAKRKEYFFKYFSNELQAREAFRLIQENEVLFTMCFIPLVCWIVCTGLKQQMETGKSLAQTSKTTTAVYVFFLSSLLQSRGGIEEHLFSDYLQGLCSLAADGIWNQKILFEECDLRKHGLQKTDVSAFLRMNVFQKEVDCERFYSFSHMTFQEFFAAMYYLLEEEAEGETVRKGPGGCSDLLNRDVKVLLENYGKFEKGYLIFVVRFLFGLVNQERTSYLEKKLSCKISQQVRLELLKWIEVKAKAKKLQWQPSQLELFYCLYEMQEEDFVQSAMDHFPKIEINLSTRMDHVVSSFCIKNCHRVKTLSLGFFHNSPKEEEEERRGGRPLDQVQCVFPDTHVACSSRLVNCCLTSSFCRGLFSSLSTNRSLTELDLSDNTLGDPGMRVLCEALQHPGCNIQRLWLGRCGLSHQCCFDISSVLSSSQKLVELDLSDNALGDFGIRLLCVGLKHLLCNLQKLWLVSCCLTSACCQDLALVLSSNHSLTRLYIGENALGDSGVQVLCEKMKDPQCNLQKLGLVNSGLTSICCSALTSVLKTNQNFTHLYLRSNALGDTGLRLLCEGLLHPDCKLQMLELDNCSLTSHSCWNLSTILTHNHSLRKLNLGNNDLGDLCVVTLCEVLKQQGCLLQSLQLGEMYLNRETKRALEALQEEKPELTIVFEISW

Assay [2] concerns the target OPTN, endogenous in mouse peritoneal macrophages (mouse (endogenous in peritoneal macrophages)) (UniProt Q8K3K8). Put plainly: co-IP; endogenous: mouse PEMs (WT or Vangl2 ΔM/ΔM) treated with LPS 100 ng/ml 6 h (some panels with CQ 50 μM); whole-cell lysates incubated overnight with antibody plus Protein A/G beads; immunoblot. For orientation: In western blotting, separated proteins are transferred to a membrane and probed.

The target in assay [3] is T2, Flag-VANGL2 (UniProt Q9ULK5).
T2 sequence: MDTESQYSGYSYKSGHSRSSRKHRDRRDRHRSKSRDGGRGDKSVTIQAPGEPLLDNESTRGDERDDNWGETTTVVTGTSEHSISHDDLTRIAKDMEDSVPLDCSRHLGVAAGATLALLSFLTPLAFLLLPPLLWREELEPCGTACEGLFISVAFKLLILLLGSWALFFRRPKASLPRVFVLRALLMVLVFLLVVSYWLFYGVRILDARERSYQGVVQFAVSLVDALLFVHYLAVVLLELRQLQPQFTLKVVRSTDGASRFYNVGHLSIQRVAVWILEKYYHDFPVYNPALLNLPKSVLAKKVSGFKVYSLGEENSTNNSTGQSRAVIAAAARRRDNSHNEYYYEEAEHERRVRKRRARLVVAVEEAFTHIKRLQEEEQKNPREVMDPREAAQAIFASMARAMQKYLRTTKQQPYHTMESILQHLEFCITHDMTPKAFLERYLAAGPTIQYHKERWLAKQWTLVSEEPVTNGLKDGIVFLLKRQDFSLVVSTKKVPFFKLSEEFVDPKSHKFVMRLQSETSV
The assay can be described thus: co-IP; exogenous, after cellular fractionation: HA-NLRP3 and Flag-VANGL2 in HEK293T, membrane and cytoplasmic fractions; Flag pulled down; immunoblot (short and long exposure).

A further assay has as its target Flag-OPTN (optineurin) (UniProt Q96CV9). Put plainly: co-IP; exogenous: tagged plasmids co-transfected into HEK293T for 24 h (some panels with CQ 50 μM 6 h, VANGL2 siRNA or VANGL2 overexpression); whole-cell lysates with anti-Flag or anti-Myc agarose beads; washed 5 times with low-salt lysis buffer (150 mM NaCl, 1% Triton X-100); immunoblot.
Assay [4] addresses T2, Flag-VANGL2. The description is as above.
In assay [5] the target is T2, Flag-VANGL2. The assay can be described thus: co-IP; in vitro binding: Flag-tagged proteins purified from HEK293T (anti-Flag beads, 500 mM NaCl wash, Flag peptide elution) incubated at 37°C for 1 h, then IP (anti-VANGL2 antibody in Fig 3C) and immunoblot; both purified.
The target of assay [6] is T3, Flag-MARCH8 (recombinant, purified) (UniProt Q5T0T0).
T3 sequence: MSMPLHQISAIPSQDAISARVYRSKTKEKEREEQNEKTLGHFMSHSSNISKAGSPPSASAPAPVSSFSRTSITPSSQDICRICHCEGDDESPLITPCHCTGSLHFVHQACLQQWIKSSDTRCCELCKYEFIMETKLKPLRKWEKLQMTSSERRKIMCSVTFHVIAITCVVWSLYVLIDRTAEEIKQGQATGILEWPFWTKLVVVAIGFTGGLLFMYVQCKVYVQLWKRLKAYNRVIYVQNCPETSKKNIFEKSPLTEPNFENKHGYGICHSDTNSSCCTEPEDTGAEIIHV
The assay is described as above.

The target in assay [7] is Flag-NLRP3 (NLR family pyrin domain containing 3) (UniProt Q96P20). The assay is described as above.
For assay [8] the target is unchanged. The assay can be described thus: co-IP; exogenous: tagged plasmids co-transfected into HEK293T for 24 h (some panels with CQ 50 μM 6 h, VANGL2 siRNA or VANGL2 overexpression); whole-cell lysates with anti-Flag or anti-Myc agarose beads; washed 5 times with low-salt lysis buffer (150 mM NaCl, 1% Triton X-100); immunoblot.
In the next assay the target is Flag-NLRP3 K823R (UniProt Q96P20). The assay is described as above.
The target of assay [9] is Flag-NLRP3 (NLR family pyrin domain containing 3) (UniProt Q96P20). The assay can be described thus: co-IP; three-step co-IP: HEK293T with Flag-NLRP3, HA-VANGL2, GFP-MARCH8 and Myc-OPTN; Flag-beads, Flag peptide elution; HA-beads, HA peptide elution; GFP-beads; western blot.
The target in assay [10] is T4, HA-VANGL2 (Van-Gogh-like 2) (UniProt Q9ULK5).
T4 sequence: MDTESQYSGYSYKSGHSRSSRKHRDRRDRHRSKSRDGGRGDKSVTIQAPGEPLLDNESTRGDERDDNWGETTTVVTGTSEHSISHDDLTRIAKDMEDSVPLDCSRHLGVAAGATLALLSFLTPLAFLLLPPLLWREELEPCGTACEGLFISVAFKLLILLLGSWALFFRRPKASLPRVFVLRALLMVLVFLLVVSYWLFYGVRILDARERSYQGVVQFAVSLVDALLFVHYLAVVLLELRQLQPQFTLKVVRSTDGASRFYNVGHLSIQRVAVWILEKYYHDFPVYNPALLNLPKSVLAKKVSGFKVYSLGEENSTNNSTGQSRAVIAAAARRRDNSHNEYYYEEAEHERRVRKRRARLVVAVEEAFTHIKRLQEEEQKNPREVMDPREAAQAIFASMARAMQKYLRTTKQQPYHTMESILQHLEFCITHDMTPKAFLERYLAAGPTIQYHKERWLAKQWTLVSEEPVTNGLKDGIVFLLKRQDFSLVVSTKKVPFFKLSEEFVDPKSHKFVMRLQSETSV
The description is as above.

Assay [11] addresses Flag-NLRP3 (NLR family pyrin domain containing 3) (UniProt Q96P20). The assay can be described thus: co-IP; exogenous: tagged plasmids co-transfected into HEK293T for 24 h (some panels with CQ 50 μM 6 h, VANGL2 siRNA or VANGL2 overexpression); whole-cell lysates with anti-Flag or anti-Myc agarose beads; washed 5 times with low-salt lysis buffer (150 mM NaCl, 1% Triton X-100); immunoblot. The source holds these as a separate data set.

For assay [12], the target named is T2, Flag-VANGL2. Described as above. The source holds these as a separate data set.
In assay [13] the target is NLRP3, endogenous in mouse peritoneal macrophages (mouse (endogenous in peritoneal macrophages)) (UniProt Q8R4B8). Put plainly: co-IP; endogenous: mouse PEMs (WT or Vangl2 ΔM/ΔM) treated with LPS 100 ng/ml 6 h (some panels with CQ 50 μM); whole-cell lysates incubated overnight with antibody plus Protein A/G beads; immunoblot.
Assay [14] has as its target T1, VANGL2, endogenous in mouse peritoneal macrophages (mouse (endogenous in peritoneal macrophages)). The assay is described as above.

Results on 10 molecules are retold here after paper PMC11790156.

No constants are given. Whether binding was seen depends on the method and setting. For some of these results: In cells and extracts the contact can be indirect. Some entries that bind do so weakly or less than the wild type. For some of these results: Sequences can lack the tags named with a protein.

For the molecule “NLRP3, endogenous in mouse peritoneal macrophages (from UniProt Q8R4B8 1-1033)”, the binding entry in [1] and in [2] was “binds” throughout.
HA-NLRP3 (from UniProt Q96P20 1-1036): the binding entry with Flag-VANGL2 [3], with Flag-OPTN (optineurin) and with Flag-VANGL2 [4] was “binds” in each case.
Take “Flag-NLRP3 (NLR family pyrin domain containing 3) (from UniProt Q96P20 1-1036)”: the binding entry in the assay with Flag-VANGL2 [5] is reported as “binds”.
Regarding “Flag-OPTN (optineurin) (from UniProt Q96CV9 1-577)”, the figures for the binding result (in assay [6]; in assay [7]; with Flag-VANGL2 [5]) were “no binding”, “binds” and “binds”, respectively.
Regarding HA-OPTN (from UniProt Q96CV9 1-577), the binding entry (in [8]; with Flag-NLRP3 K823R) was “binds” in each case.
For the molecule Myc-OPTN (from UniProt Q96CV9 1-577), the binding result in [9] and in assay [10] was “binds” in each case.

B1: GFP-MARCH8 (enzyme, UniProt Q5T0T0 1-291)
chain: MSMPLHQISAIPSQDAISARVYRSKTKEKEREEQNEKTLGHFMSHSSNISKAGSPPSASAPAPVSSFSRTSITPSSQDICRICHCEGDDESPLITPCHCTGSLHFVHQACLQQWIKSSDTRCCELCKYEFIMETKLKPLRKWEKLQMTSSERRKIMCSVTFHVIAITCVVWSLYVLIDRTAEEIKQGQATGILEWPFWTKLVVVAIGFTGGLLFMYVQCKVYVQLWKRLKAYNRVIYVQNCPETSKKNIFEKSPLTEPNFENKHGYGICHSDTNSSCCTEPEDTGAEIIHV
Consider B1, for which the binding entry (in assay [9]; in [10]; in [11]; in the assay with Flag-VANGL2 [12]) was “binds” throughout.

B2: Flag-MARCH8 (recombinant, purified) (enzyme, UniProt Q5T0T0 1-291)
chain: MSMPLHQISAIPSQDAISARVYRSKTKEKEREEQNEKTLGHFMSHSSNISKAGSPPSASAPAPVSSFSRTSITPSSQDICRICHCEGDDESPLITPCHCTGSLHFVHQACLQQWIKSSDTRCCELCKYEFIMETKLKPLRKWEKLQMTSSERRKIMCSVTFHVIAITCVVWSLYVLIDRTAEEIKQGQATGILEWPFWTKLVVVAIGFTGGLLFMYVQCKVYVQLWKRLKAYNRVIYVQNCPETSKKNIFEKSPLTEPNFENKHGYGICHSDTNSSCCTEPEDTGAEIIHV
Consider B2, for which the binding entry (in assay [7]; with Flag-VANGL2 [5]) was “binds” throughout.

B3: VANGL2, endogenous in mouse peritoneal macrophages (protein, UniProt Q91ZD4 1-521)
chain: MDTESQYSGYSYKSGHSRSSRKHRDRRDRHRSKSRDGSRGDKSVTIQAPGEPLLDNESTRGDERDDNWGETTTVVTGTSEHSISHDDLTRIAKDMEDSVPLDCSRHLGVAAGAILALLSFLTPLAFLLLPPLLWREELEPCGTACEGLFISVAFKLLILLLGSWALFFRRPKASLPRVFVLRALLMVLVFLLVISYWLFYGVRILDARERSYQGVVQFAVSLVDALLFVHYLAVVLLELRQLQPQFTLKVVRSTDGASRFYNVGHLSIQRVAVWILEKYYHDFPVYNPALLNLPKSVLAKKVSGFKVYSLGEENSTNNSTGQSRAVIAAAARRRDNSHNEYYYEEAEHERRVRKRRARLVVAVEEAFTHIKRLQEEEQKNPREVMDPREAAQAIFASMARAMQKYLRTTKQQPYHTMESILQHLEFCITHDMTPKAFLERYLAAGPTIQYHKERWLAKQWTLVSEEPVTNGLKDGIVFLLKRQDFSLVVSTKKVPFFKLSEEFVDPKSHKFVMRLQSETSV
Regarding B3, the binding entry in assay [13] is recorded as “binds”.

B4: MARCH8, endogenous in mouse peritoneal macrophages (enzyme, UniProt Q9DBD2 1-286)
chain: MSMPLHQISAIPSQDAISARVYRSKTKDKEQNEKTLGHSMSHPSNISKAGSSPPSTTAPVSAFSRTSVTPSNQDICRICHCEGDDESPLITPCHCTGSLHFVHQACLQQWIKSSDTRCCELCKYEFIMETKLKPLRKWEKLQMTASERRKIMCSVTFHVIAITCVVWSLYVLIDRTAEEIKQGQVTGILEWPFWTKLVVVAIGFTGGLLFMYVQCKVYLQLWKRLKAYNRVIYVQNCPETSKKNIFEKSALTEPTLENKEGHGMCHSTTNSSCTEPEDTGAEIINV
Turning to B4, the binding entry in assay [13] and in assay [14] was “binds” in each case.
